Results are given in words; binding and its absence hold for the method and conditions named. Binding seen in cells or lysates may run through a third protein. A yes stands for co-enrichment or nearness to the bait. Other partners may have been found. A no says only that the protein was not detected with the bait.
B1: multimerin 1 (protein, UniProt Q13201 20-1228)
chain: LNNSKHSWTIPEDGNSQKTMPSASVPPNKIQSLQILPTTRVMSAEIATTPEARTSEDSLLKSTLPPSETSAPAEGVRNQTLTSTEKAEGVVKLQNLTLPTNASIKFNPGAESVVLSNSTLKFLQSFARKSNEQATSLNTVGGTGGIGGVGGTGGVGNRAPRETYLSRGDSSSSQRTDYQKSNFETTRGKNWCAYVHTRLSPTVILDNQVTYVPGGKGPCGWTGGSCPQRSQKISNPVYRMQHKIVTSLDWRCCPGYSGPKCQLRAQEQQSLIHTNQAESHTAVGRGVAEQQQQQGCGDPEVMQKMTDQVNYQAMKLTLLQKKIDNISLTVNDVRNTYSSLEGKVSEDKSREFQSLLKGLKSKSINVLIRDIVREQFKIFQNDMQETVAQLFKTVSSLSEDLESTRQIIQKVNESVVSIAAQQKFVLVQENRPTLTDIVELRNHIVNVRQEMTLTCEKPIKELEVKQTHLEGALEQEHSRSILYYESLNKTLSKLKEVHEQLLSTEQVSDQKNAPAAESVSNNVTEYMSTLHENIKKQSLMMLQMFEDLHIQESKINNLTVSLEMEKESLRGECEDMLSKCRNDFKFQLKDTEENLHVLNQTLAEVLFPMDNKMDKMSEQLNDLTYDMEILQPLLEQGASLRQTMTYEQPKEAIVIRKKIENLTSAVNSLNFIIKELTKRHNLLRNEVQGRDDALERRINEYALEMEDGLNKTMTIINNAIDFIQDNYALKETLSTIKDNSEIHHKCTSDMETILTFIPQFHRLNDSIQTLVNDNQRYNFVLQVAKTLAGIPRDEKLNQSNFQKMYQMFNETTSQVRKYQQNMSHLEEKLLLTTKISKNFETRLQDIESKVTQTLIPYYISVKKGSVVTNERDQALQLQVLNSRFKALEAKSIHLSINFFSLNKTLHEVLTMCHNASTSVSELNATIPKWIKHSLPDIQLLQKGLTEFVEPIIQIKTQAALSNLTCCIDRSLPGSLANVVKSQKQVKSLPKKINALKKPTVNLTTVLIGRTQRNTDNIIYPEEYSSCSRHPCQNGGTCINGRTSFTCACRHPFTGDNCTIKLVEENALAPDFSKGSYRYAPMVAFFASHTYGMTIPGPILFNNLDVNYGASYTPRTGKFRIPYLGVYVFKYTIESFSAHISGFLVVDGIDKLAFESENINSEIHCDRVLTGDALLELNYGQEVWLRLAKGTIPAKFPPVTTFSGYLLYRT
modifications: biotin (surface labelling of the platelets)

Protein sequences, listed by entry. Tags and fused reporters are not part of them. Lines headed by an entry give the natural chain unless they say otherwise; changes in a name come on top. Residues count along the entry.
UniProt Q48245: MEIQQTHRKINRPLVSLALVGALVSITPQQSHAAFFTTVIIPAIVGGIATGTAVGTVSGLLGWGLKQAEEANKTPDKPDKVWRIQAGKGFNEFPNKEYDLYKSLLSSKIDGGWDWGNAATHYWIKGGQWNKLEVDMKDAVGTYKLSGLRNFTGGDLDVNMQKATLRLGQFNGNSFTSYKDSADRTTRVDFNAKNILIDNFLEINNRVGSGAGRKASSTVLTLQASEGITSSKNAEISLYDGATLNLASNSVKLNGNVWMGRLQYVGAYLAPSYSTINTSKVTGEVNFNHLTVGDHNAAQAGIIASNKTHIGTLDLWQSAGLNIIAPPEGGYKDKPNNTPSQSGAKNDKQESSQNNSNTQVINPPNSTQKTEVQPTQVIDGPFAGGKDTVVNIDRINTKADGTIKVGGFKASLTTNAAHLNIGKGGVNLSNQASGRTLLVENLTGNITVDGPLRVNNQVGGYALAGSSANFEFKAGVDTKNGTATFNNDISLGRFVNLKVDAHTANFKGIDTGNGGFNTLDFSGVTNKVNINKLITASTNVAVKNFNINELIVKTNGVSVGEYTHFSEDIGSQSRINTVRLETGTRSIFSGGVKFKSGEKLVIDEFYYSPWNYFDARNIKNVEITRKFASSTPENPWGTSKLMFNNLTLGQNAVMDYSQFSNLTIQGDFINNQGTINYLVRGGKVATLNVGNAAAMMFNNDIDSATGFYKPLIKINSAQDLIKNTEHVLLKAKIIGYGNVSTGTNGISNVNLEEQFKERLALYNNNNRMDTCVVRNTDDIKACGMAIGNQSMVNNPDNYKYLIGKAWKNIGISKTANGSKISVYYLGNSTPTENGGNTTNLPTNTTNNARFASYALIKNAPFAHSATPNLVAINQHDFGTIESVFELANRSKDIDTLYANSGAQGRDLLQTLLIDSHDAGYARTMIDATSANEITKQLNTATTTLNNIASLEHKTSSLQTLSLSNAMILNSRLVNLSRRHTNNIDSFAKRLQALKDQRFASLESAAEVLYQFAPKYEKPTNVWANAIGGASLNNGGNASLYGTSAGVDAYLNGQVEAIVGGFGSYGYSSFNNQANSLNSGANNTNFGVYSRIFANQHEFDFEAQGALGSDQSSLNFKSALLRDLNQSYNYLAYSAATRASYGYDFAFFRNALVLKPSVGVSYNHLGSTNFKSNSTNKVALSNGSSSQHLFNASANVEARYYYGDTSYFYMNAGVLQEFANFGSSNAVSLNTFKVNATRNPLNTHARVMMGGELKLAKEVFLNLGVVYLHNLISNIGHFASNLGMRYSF
UniProt P05107, residues 23-769: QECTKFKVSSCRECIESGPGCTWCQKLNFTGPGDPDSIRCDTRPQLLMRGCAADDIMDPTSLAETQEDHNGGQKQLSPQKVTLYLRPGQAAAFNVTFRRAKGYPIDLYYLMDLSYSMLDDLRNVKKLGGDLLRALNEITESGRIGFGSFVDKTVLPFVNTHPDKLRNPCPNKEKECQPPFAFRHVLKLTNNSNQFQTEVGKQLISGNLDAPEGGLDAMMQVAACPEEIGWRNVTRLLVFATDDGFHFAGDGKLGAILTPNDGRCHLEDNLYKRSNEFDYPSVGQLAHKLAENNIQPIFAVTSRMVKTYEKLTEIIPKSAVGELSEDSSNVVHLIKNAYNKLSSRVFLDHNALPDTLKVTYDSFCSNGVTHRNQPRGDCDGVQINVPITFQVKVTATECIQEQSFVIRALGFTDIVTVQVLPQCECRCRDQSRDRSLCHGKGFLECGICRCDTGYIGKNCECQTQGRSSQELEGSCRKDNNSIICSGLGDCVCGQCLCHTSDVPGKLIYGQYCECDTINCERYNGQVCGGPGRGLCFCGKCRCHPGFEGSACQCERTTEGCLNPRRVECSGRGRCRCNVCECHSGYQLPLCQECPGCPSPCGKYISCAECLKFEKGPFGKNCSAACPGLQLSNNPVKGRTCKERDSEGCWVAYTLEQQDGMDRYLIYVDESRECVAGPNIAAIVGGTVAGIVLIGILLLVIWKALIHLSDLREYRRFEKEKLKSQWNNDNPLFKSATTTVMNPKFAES
UniProt P23471, residues 25-2315: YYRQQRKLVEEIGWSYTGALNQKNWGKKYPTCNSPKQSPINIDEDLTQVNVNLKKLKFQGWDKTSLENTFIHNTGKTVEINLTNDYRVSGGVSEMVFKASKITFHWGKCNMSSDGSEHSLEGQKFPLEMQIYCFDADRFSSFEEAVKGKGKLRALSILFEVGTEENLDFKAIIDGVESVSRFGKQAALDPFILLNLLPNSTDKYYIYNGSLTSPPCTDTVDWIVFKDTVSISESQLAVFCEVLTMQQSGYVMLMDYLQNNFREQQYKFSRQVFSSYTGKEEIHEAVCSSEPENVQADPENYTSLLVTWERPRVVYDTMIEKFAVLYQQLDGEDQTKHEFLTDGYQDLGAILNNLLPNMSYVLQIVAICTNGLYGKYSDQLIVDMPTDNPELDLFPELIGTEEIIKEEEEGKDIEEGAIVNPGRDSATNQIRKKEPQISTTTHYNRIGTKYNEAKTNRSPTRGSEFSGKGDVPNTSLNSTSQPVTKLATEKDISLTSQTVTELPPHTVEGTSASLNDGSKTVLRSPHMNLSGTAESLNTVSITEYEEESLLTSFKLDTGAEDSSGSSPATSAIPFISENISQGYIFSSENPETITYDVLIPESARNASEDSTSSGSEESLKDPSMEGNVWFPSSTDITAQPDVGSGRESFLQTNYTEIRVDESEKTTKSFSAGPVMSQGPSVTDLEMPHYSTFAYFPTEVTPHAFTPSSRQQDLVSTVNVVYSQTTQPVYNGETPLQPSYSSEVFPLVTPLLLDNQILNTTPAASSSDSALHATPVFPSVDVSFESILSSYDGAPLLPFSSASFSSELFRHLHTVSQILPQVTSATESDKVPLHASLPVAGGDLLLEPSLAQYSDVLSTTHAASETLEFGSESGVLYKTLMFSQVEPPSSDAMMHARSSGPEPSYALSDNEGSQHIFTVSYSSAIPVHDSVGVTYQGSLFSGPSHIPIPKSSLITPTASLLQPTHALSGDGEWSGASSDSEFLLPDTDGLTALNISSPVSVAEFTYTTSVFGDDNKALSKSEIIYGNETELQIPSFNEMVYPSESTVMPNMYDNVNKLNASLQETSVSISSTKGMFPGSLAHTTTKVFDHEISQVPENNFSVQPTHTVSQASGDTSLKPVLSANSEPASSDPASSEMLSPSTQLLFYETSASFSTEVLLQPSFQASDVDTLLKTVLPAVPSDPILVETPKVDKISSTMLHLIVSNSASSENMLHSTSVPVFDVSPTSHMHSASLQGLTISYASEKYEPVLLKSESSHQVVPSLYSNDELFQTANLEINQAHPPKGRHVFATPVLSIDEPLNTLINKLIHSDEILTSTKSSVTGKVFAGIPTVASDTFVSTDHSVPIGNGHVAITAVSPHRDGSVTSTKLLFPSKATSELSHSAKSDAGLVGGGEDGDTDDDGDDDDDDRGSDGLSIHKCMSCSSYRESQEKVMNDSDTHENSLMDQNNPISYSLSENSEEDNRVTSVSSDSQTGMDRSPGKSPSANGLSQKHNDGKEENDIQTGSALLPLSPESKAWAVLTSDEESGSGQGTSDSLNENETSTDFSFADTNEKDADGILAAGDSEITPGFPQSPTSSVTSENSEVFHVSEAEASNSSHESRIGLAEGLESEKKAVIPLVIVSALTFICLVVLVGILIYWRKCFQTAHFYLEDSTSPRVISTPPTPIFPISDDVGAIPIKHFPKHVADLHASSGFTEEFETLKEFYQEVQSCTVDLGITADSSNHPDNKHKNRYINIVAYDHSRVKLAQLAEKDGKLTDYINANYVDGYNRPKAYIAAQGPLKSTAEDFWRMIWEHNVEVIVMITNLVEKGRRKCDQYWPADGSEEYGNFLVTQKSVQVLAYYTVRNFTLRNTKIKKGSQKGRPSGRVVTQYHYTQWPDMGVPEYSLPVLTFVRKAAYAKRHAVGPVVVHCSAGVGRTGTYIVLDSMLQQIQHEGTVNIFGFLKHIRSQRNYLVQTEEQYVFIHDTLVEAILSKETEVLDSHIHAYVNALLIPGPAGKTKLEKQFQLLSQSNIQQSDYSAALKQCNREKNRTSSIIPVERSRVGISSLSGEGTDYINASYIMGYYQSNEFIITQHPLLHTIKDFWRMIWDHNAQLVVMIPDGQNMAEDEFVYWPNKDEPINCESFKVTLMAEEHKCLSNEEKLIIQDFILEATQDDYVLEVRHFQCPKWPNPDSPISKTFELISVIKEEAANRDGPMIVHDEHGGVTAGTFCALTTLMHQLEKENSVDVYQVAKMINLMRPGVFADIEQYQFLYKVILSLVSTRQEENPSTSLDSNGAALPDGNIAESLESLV

target: VacA, the vacuolating cytotoxin of Helicobacter pylori (Helicobacter pylori ATCC49503) (UniProt Q48245); experiment: affinity purification with mass spectrometry; only the target purified

Molecule	binding
CD18 (from UniProt P05107 23-769) (receptor)	no binding
RPTPβ (from UniProt P23471 25-2315) (receptor)	no binding
B1	binds

Source: article PMC3842841, “VacA, the vacuolating cytotoxin of Helicobacter pylori, binds to multimerin 1 on human platelets” (Thrombosis Journal, 2013)
